Test [1] concerns the target T1, PRR9-nYFP (Arabidopsis) (UniProt Q8L500).
T1 sequence: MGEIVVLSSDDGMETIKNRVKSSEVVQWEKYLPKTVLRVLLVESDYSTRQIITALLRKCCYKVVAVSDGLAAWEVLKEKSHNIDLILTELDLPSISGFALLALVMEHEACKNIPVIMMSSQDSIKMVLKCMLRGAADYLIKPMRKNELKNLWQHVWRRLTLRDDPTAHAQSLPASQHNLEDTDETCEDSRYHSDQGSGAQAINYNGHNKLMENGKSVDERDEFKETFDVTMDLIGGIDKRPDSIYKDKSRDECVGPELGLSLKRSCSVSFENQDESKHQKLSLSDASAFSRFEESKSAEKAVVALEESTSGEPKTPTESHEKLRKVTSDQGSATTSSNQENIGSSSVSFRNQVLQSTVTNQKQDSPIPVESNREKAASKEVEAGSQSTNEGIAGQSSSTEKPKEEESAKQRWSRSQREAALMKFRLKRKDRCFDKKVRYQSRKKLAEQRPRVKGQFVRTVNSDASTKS
In words: split reporter; BiFC: nYFP and cYFP fusions and H2B-mCherry co-infiltrated (5:5:1) into N. benthamiana leaves for 3 days; confocal microscopy.

Amino acid sequences for entries named in this document (tags omitted). A change or cut given only in a name is not applied to a line headed by its entry.
UniProt Q9FK52: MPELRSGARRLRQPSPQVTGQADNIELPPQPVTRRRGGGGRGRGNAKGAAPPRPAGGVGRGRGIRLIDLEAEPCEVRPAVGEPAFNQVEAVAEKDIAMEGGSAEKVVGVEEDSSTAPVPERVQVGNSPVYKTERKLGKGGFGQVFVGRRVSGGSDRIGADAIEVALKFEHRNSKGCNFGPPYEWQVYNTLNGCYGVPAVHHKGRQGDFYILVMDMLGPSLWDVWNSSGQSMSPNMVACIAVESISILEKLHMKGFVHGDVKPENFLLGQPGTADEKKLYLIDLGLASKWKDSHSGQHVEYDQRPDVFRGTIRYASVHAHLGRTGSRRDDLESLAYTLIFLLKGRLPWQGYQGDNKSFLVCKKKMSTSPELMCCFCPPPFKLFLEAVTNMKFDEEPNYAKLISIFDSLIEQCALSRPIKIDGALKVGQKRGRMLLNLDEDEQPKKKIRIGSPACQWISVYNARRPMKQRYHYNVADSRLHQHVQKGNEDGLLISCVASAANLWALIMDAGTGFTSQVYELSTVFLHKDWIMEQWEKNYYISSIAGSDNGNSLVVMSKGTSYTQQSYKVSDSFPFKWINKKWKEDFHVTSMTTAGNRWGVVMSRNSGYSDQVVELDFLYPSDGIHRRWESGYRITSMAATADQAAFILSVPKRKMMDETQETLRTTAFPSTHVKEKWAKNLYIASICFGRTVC
UniProt Q9SQR8: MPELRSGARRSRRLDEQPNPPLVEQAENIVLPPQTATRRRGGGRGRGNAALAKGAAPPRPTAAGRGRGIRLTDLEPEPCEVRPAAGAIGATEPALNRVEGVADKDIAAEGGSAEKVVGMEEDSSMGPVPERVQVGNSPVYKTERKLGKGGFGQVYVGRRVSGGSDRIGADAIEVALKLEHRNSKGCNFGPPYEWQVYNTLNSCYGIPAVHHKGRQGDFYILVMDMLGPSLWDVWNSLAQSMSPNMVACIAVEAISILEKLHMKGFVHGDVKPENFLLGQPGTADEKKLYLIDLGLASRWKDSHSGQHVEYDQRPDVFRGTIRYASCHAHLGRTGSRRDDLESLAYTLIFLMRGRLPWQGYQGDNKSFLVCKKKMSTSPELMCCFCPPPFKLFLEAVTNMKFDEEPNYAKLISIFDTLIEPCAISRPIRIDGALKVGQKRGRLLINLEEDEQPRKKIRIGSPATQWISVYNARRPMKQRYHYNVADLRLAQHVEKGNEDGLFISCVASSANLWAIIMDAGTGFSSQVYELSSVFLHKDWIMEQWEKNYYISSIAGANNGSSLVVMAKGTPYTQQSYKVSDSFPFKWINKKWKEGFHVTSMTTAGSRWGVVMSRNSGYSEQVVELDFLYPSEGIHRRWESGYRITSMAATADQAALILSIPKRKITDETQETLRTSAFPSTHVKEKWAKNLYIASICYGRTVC
UniProt Q9LID3: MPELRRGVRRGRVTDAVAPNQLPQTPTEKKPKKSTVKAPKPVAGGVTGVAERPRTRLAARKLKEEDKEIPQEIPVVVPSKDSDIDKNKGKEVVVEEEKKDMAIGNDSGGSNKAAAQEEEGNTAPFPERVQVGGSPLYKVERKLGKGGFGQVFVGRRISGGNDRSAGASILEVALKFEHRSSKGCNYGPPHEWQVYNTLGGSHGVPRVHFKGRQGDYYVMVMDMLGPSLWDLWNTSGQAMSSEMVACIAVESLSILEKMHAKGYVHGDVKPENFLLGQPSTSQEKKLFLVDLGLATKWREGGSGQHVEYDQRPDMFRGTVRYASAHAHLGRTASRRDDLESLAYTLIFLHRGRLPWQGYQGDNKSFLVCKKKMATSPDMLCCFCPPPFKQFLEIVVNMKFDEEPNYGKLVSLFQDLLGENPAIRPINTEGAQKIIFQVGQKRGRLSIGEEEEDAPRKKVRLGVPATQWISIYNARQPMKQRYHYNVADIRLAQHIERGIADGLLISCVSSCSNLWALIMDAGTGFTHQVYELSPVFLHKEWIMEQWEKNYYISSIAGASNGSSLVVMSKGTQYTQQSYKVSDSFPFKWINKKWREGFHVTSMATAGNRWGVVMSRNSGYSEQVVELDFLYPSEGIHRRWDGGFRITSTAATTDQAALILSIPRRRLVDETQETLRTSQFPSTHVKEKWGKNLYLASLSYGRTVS

Test [2] has as its target T2, PRR9-MBP (Arabidopsis) (UniProt Q8L500).
T2 sequence: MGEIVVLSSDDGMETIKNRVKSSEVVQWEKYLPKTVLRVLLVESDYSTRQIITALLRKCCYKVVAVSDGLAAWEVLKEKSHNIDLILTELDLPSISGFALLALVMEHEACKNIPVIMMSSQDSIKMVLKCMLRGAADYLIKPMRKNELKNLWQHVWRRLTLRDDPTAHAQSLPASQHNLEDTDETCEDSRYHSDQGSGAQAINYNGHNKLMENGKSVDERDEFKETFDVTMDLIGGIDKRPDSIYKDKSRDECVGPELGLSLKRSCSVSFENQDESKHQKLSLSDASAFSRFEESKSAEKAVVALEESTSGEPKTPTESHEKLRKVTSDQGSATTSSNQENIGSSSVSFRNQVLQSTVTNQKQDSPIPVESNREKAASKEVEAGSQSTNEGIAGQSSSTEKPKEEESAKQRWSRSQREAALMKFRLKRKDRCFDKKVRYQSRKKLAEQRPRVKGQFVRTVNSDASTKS
In words: pull-down; recombinant PRR9-MBP or MBP resin incubated with extracts of tobacco leaves or Arabidopsis seedlings, 4 C, 2 h; pulled-down proteins detected with GFP antibody; GFP-CRY2 seedlings exposed to dark, red or blue light (10 umol m^-2 s^-1) for 10 min; only the target purified.

The target of test [3] is T3, PRR9-GFP (Arabidopsis) (UniProt Q8L500).
T3 sequence: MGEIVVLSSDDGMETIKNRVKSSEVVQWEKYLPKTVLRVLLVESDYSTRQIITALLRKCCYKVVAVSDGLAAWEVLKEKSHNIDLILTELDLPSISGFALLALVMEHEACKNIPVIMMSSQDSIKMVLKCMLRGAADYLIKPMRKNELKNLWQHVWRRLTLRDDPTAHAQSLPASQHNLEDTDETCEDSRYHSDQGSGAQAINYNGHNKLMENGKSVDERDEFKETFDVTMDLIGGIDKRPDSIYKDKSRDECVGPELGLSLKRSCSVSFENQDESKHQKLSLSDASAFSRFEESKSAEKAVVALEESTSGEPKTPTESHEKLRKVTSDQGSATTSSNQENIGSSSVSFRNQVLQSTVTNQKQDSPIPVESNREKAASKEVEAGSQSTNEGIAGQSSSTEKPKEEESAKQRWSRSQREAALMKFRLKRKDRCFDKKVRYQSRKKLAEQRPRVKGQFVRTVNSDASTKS
Nature of the test: co-IP; competitive co-IP: PRR9-GFP immunoprecipitated, TPL-FLAG or PPK1-Flag co-expressed with or without CRY2-HA; blots with GFP, Flag and HA antibodies.

The target in test [4] is PPK1-GFP (Arabidopsis). Nature of the test: co-IP; co-expression in N. benthamiana leaves, 3 days; GFP-Trap beads, 4 C, 1 h, 150 mM NaCl, 0.2% NP-40; blots with GFP and HA antibodies; for CRY2-GFP and PRR9-HA also after 10 min dark, red or blue light (10 umol m^-2 s^-1).
The target of test [5] is PPK3-GFP (Arabidopsis). Described as above.
Test [6] has as its target PPK1^K175A-GFP (Arabidopsis). The test is described as above.
Test [7] concerns the target PPK4-GFP (Arabidopsis). The description is as above.
The target in test [8] is PPK2-GFP (Arabidopsis). The test is described as above.

These are yes or no findings as the source states them, for the method shown. In cells and extracts the contact can be indirect. Binding calls can cover weak binding; strength is not graded here. Where a sequence is shown, tags or fusion partners need not be part of it.

In the case of “PPK2-cYFP (from UniProt Q9FK52) (enzyme)”, the binding result in test [1] is “binds”.
Regarding PPK4-GFP (Arabidopsis) (enzyme), the binding result in test [2] is reported as “binds”.
On the same count and under the same terms, in the case of PPK1-GFP (Arabidopsis) (enzyme) it was “binds”.
For the molecule PPK1-Flag (Arabidopsis) (enzyme), the binding entry in test [3] is “binds”.
On to PPK4-cYFP (Arabidopsis) (enzyme), for which the binding entry in test [1] is recorded as “binds”.
For the molecule PPK3-GFP (Arabidopsis) (enzyme), the binding result in test [2] is recorded as “binds”.
Turning to PPK2-GFP (Arabidopsis) (enzyme), the binding result in test [2] was “binds”.
Turning to “PPK3-cYFP (from UniProt Q9SQR8) (enzyme)”, the binding result in test [1] is given as “binds”.
On the same count and under the same terms, the value for “PPK1-cYFP (from UniProt Q9LID3) (enzyme)” was “binds”.

B1: PRR9-HA (protein, UniProt Q8L500 1-468)
chain: MGEIVVLSSDDGMETIKNRVKSSEVVQWEKYLPKTVLRVLLVESDYSTRQIITALLRKCCYKVVAVSDGLAAWEVLKEKSHNIDLILTELDLPSISGFALLALVMEHEACKNIPVIMMSSQDSIKMVLKCMLRGAADYLIKPMRKNELKNLWQHVWRRLTLRDDPTAHAQSLPASQHNLEDTDETCEDSRYHSDQGSGAQAINYNGHNKLMENGKSVDERDEFKETFDVTMDLIGGIDKRPDSIYKDKSRDECVGPELGLSLKRSCSVSFENQDESKHQKLSLSDASAFSRFEESKSAEKAVVALEESTSGEPKTPTESHEKLRKVTSDQGSATTSSNQENIGSSSVSFRNQVLQSTVTNQKQDSPIPVESNREKAASKEVEAGSQSTNEGIAGQSSSTEKPKEEESAKQRWSRSQREAALMKFRLKRKDRCFDKKVRYQSRKKLAEQRPRVKGQFVRTVNSDASTKS
Regarding B1, the binding entry in test [4], in test [5], in test [6], in test [7] and in test [8] was “binds” in each case.
